# Assay results taken from PubChem BioAssay AID248 (DTP/NCI, 2004).
# The list shows only some results of the screen, not a fair sample: it is rich in T/C values a quarter to a half above the control, in often repeated tests (any T/C) and in doses without a T/C. Further doses and runs are listed elsewhere. T/C: endpoint of the treated group in % of that of the vehicle group. Some entries give survivors of the animals treated and no T/C: the source files T/C as zero there, which appears to mark a toxic dose or a test without result, not a measured value. Some doses without a T/C left all or most animals alive at the check, yet need not have been tolerated: survival well below the control is almost never listed, so the zero probably covers shortened survival too. Survivors were counted at the toxicity check, usually on the fifth day, unless a day is given; later deaths do not show. Schedules are NCI's codes, taken here to give the interval after Q, in days (D) or hours (H), and the number of doses after X. Some doses were run more than once; the results are listed from low to high. Some schedule codes hold Z or #, which are not explained here. Some structures stand for samples that the source files as different forms (salt, stereo form or complex); doses refer to the form tested. Where survival is the endpoint, the PubChem record calls one and a half times the control and up active, and a quarter to a half above the control has no call in these data; cut-offs in other NCI protocols can differ. Some T/C values carry the count of animals alive at the toxicity check (mostly the fifth day); where none is given, no animal had died by that day.
# Test system: L1210 leukemia ip in BDF1 mice, survival T/C
# Test: NCI In Vivo Anticancer Drug Screen. Data for tumor model L1210 Leukemia (intraperitoneal) in B6D2F1 (BDF1) mice
# Conditions: T/C endpoint: mean survival time, higher T/C = longer survival
# [1] = dose: 400.0 mg/kg/injection, schedule: Q04DX002 (ip), vehicle: Klucel (hydroxypropylcellulose) (HPC)
# [2] = dose: 100.0 mg/kg/injection, schedule: Q04DX003 (ip), vehicle: saline
# [3] = dose: 200.0 mg/kg/injection, schedule: Q04DX003 (ip), vehicle: saline
# [4] = dose: 400.0 mg/kg/injection, schedule: Q04DX003 (ip), vehicle: saline
compound,measurement,setting,value
C=CS(=O)(=O)c1ccc2ccccc2c1,survivor count,"dose: 100.0 mg/kg/injection, schedule: Q04DX002 (ip), vehicle: Klucel (hydroxypropylcellulose) (HPC)",0 of 3
same,survivor count,"dose: 200.0 mg/kg/injection, schedule: Q04DX002 (ip), vehicle: Klucel (hydroxypropylcellulose) (HPC)",0 of 3
same,survivor count,[1],0 of 3
NC(=S)N/N=C/c1ncccc1O,survivor count,"dose: 1.56 mg/kg/injection, schedule: Q01DX015 (ip), vehicle: saline",0 of 6
same,T/C,"dose: 3.13 mg/kg/injection, schedule: Q01DX015 (ip), vehicle: saline",127 % of control
same,T/C,"dose: 6.25 mg/kg/injection, schedule: Q01DX Z (ip), vehicle: saline",132 % of control
same,T/C,"dose: 12.5 mg/kg/injection, schedule: Q01DX015 (ip), vehicle: saline",142 % of control
same,T/C,"dose: 32.0 mg/kg/injection, schedule: Q03HX032 (ip), vehicle: saline with Tween-80",126 % of control
same,T/C,"dose: 50.0 mg/kg/injection, schedule: Q01DX015 (ip), vehicle: saline",132 % of control
same,T/C,"dose: 70.0 mg/kg/injection, schedule: Q03HX032 (ip), vehicle: saline with Tween-80",134 % of control
same,T/C,"dose: 100.0 mg/kg/injection, schedule: Q01DX Z (ip), vehicle: saline",144 % of control
same,T/C,"dose: 150.0 mg/kg/injection, schedule: Q01DX Z (oral), vehicle: saline",128 % of control
same,T/C,"dose: 225.0 mg/kg/injection, schedule: Q01DX Z (ip), vehicle: saline",138 % of control
same,T/C,"dose: 225.0 mg/kg/injection, schedule: Q01DX Z (oral), vehicle: saline",126 % of control
same,survivor count,"dose: 335.0 mg/kg/injection, schedule: Q01DX Z (ip), vehicle: saline",2 of 6 and 4 of 6
same,survivor count,"dose: 500.0 mg/kg/injection, schedule: Q01DX Z (ip), vehicle: saline",0 of 6 and 1 of 6
Nc1ncnc2c1ncn2CCCCCCl,survivor count,[2],3 of 6
same,survivor count,[3],0 of 6
same,survivor count,[4],0 of 6
c1ccc(CC2NCCc3ccccc32)cc1 (stereo not drawn),survivor count,"dose: 200.0 mg/kg/injection, schedule: Q01DX001 (ip), vehicle: acetone",3 of 6
same,survivor count,"dose: 400.0 mg/kg/injection, schedule: Q01DX001 (ip), vehicle: acetone",0 of 6
CN(C)c1ccc(C2NC(c3ccccc3)c3c(ccc4ccccc34)O2)cc1 (stereo not drawn),survivor count,[3],6 of 6
NC1CC2CCC1C2 (stereo not drawn),survivor count,"dose: 200.0 mg/kg/injection, schedule: Q04DX002 (ip), vehicle: saline",0 of 3
CS(=O)(=O)Nc1ccc(Nc2c3ccccc3nc3cc(Cl)ccc23)cc1,T/C,"dose: 40.0 mg/kg/injection, schedule: Q01DX009 (sc), vehicle: saline",142 % of control
same,T/C,"dose: 80.0 mg/kg/injection, schedule: Q01DX009 (sc), vehicle: saline",126 % of control
N#CC12CC=CCC1CCC2=N (stereo not drawn),survivor count,"dose: 50.0 mg/kg/injection, schedule: Q01DX009 (ip), vehicle: Klucel (hydroxypropylcellulose) (HPC)",1 of 6
same,survivor count,"dose: 75.0 mg/kg/injection, schedule: Q01DX009 (ip), vehicle: Klucel (hydroxypropylcellulose) (HPC)",3 of 6
same,survivor count,"dose: 150.0 mg/kg/injection, schedule: Q01DX009 (ip), vehicle: Klucel (hydroxypropylcellulose) (HPC)",1 of 6
same,survivor count,"dose: 300.0 mg/kg/injection, schedule: Q01DX009 (ip), vehicle: Klucel (hydroxypropylcellulose) (HPC)",0 of 6
NC(CS(=O)c1ccc(Cl)cc1)C(=O)O (stereo not drawn),survivor count,"dose: 400.0 mg/kg/injection, schedule: Q04DX003 (ip), vehicle: saline with Tween-80",0 of 6
NC(CSC(c1ccccc1)(c1ccccc1)c1ccc(O)cc1)C(=O)O (stereo not drawn),survivor count,"dose: 300.0 mg/kg/injection, schedule: Q01DX001 (ip), vehicle: other",2 of 6
c1ccc(C(N2CCCCC2)N2CCCCC2)cc1,survivor count,"dose: 400.0 mg/kg/injection, schedule: Q04DX003 (ip), vehicle: Klucel (hydroxypropylcellulose) (HPC)",2 of 3
COc1ccc(/C=C2\CS(=O)(=O)C/C(=C\c3ccc(OC)cc3)C2=O)cc1,survivor count,"dose: 200.0 mg/kg/injection, schedule: Q01DX001 (ip), vehicle: saline",6 of 6
COc1ccccc1NC(=O)Nc1ccc(S(N)(=O)=O)cc1,survivor count,"dose: 200.0 mg/kg/injection, schedule: Q04DX002 (ip), vehicle: saline with Tween-80",3 of 3
Clc1nc(Cl)c2c(ncn2Cc2ccccc2)n1,survivor count,"dose: 400.0 mg/kg/injection, schedule: Q01DX001 (ip), vehicle: other",1 of 6
CC1C[N-]CC(C)C1.[CH-]=C(C)C.[Cl][Pt+2][Cl] (stereo not drawn),survivor count,[3],1 of 6
same,survivor count,[4],0 of 6
C/C(CC(C)C)=N\NC(=O)Nc1cccc(Cl)c1C,survivor count,[1],3 of 3
C=C1C2CCC3C4(C)CC(OC5OC(CO)C(OS(=O)(=O)O)C(OS(=O)(=O)O)C5OC(=O)CCCC)CC(C(=O)O)(C(=O)O)C4CCC3(C2)C1O (stereo not drawn),survivor count,"dose: 12.5 mg/kg/injection, schedule: Q01DX009 (ip), vehicle: saline",0 of 6
same,survivor count,"dose: 12.5 mg/kg/injection, schedule: Q04DX002 (ip), vehicle: saline",0 of 3 and 1 of 3
same,survivor count,"dose: 25.0 mg/kg/injection, schedule: Q01DX009 (ip), vehicle: saline",0 of 6
same,survivor count,"dose: 25.0 mg/kg/injection, schedule: Q04DX002 (ip), vehicle: saline",0 of 3
same,survivor count,"dose: 50.0 mg/kg/injection, schedule: Q01DX009 (ip), vehicle: saline",0 of 6
same,survivor count,"dose: 50.0 mg/kg/injection, schedule: Q04DX002 (ip), vehicle: saline",0 of 3
same,survivor count,"dose: 100.0 mg/kg/injection, schedule: Q01DX009 (ip), vehicle: Klucel (hydroxypropylcellulose) (HPC)",0 of 6
same,survivor count,"dose: 200.0 mg/kg/injection, schedule: Q01DX009 (ip), vehicle: Klucel (hydroxypropylcellulose) (HPC)",0 of 6
same,survivor count,"dose: 400.0 mg/kg/injection, schedule: Q01DX009 (ip), vehicle: Klucel (hydroxypropylcellulose) (HPC)",0 of 6
C1OC2CC3CC1C2C3 (stereo not drawn),survivor count,"dose: 75.0 mg/kg/injection, schedule: Q01DX001 (ip), vehicle: acetone",2 of 6
same,survivor count,"dose: 150.0 mg/kg/injection, schedule: Q01DX001 (ip), vehicle: acetone",0 of 6
same,survivor count,"dose: 300.0 mg/kg/injection, schedule: Q01DX001 (ip), vehicle: acetone",0 of 6
CC[C@@]1(O)C[C@H](OC2CC(N(C)C)C(OC3CC(O)C(O[C@@H]4O[C@@H](C)C(=O)C=C4N)C(C)O3)C(C)O2)c2c(cc3c(c2O)C(=O)c2c(O)ccc(O)c2C3=O)[C@H]1C(=O)OC (stereo partly drawn),survivor count,"dose: 0.1 mg/kg/injection, schedule: Q01DX009 (ip), vehicle: suspension in saline",3 of 6
same,T/C,"dose: 0.4 mg/kg/injection, schedule: Q05DX005 (ip), vehicle: saline",129 % of control
same,T/C,"dose: 0.4 mg/kg/injection, schedule: Q09DX009 (ip), vehicle: saline",125 % of control
same,T/C,"dose: 0.8 mg/kg/injection, schedule: Q03DX003 (ip), vehicle: saline",129 % of control
same,T/C,"dose: 0.8 mg/kg/injection, schedule: Q05DX005 (ip), vehicle: saline",141 % of control
same,T/C,"dose: 0.8 mg/kg/injection, schedule: Q09DX009 (ip), vehicle: saline",136 % of control
same,survivor count,"dose: 1.6 mg/kg/injection, schedule: Q01DX009 (ip), vehicle: suspension in saline",4 of 6
same,T/C,"dose: 1.6 mg/kg/injection, schedule: Q03DX003 (ip), vehicle: saline",131 % of control
same,T/C,"dose: 3.2 mg/kg/injection, schedule: Q01DX001 (ip), vehicle: saline",138 % of control [5 of 6 alive]
same,survivor count,"dose: 6.4 mg/kg/injection, schedule: Q01DX001 (ip), vehicle: saline",3 of 6
same,survivor count,"dose: 12.8 mg/kg/injection, schedule: Q01DX001 (ip), vehicle: saline",3 of 6
NCCc1ccc(NC(=O)c2ccc(C(=O)Nc3ccc(CCN)cc3)c([N+](=O)[O-])c2)cc1,survivor count,"dose: 50.0 mg/kg/injection, schedule: Q01DX015 (ip), vehicle: methylcellulose (MC)",0 of 6
same,survivor count,"dose: 100.0 mg/kg/injection, schedule: Q01DX015 (ip), vehicle: methylcellulose (MC)",0 of 6
C[N+](C)(C)CCC(=O)c1ccccc1,survivor count,[2],1 of 6
same,survivor count,"dose: 150.0 mg/kg/injection, schedule: Q01DX001 (ip), vehicle: saline",2 of 6
same,survivor count,[3],0 of 6
same,survivor count,"dose: 300.0 mg/kg/injection, schedule: Q01DX001 (ip), vehicle: saline",1 of 6
same,survivor count,[4],0 of 6
